This experiment concerns the target full length Flag-tagged USP28 (human) (UniProt Q96RU2). Briefly: co-IP.

By UniProt entry, the sequences of proteins in these tests, tags left out.
UniProt Q96RU2, whole entry: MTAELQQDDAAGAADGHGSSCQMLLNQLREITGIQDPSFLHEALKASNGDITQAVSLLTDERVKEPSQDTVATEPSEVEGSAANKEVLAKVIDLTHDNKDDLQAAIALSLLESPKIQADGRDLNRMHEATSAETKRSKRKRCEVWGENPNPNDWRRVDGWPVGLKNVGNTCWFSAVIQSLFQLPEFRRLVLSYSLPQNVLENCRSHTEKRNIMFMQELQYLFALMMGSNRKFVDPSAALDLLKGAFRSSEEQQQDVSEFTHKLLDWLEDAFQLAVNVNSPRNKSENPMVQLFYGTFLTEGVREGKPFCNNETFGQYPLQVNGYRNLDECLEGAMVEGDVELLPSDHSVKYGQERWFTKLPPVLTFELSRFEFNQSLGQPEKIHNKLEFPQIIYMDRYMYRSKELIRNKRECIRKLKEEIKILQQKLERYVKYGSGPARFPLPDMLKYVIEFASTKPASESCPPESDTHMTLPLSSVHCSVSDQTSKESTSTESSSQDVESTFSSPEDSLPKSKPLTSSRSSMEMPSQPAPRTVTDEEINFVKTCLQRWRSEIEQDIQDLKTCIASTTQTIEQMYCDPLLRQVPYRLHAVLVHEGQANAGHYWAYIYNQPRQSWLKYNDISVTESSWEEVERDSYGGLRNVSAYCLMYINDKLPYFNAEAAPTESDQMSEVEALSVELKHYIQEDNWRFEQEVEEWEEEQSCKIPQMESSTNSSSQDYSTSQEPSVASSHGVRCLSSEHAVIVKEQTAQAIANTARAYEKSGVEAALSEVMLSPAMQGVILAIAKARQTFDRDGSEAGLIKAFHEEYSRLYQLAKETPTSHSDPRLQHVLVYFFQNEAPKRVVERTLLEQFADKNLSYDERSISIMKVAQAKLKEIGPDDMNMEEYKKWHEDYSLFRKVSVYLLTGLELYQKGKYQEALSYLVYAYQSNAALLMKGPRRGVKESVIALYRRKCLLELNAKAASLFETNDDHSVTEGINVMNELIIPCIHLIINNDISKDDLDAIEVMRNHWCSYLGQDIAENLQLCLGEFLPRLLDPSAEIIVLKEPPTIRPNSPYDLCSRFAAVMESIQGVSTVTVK

These are yes or no findings as the source states them, for the method shown. Binding seen in cells or lysates may run through a third protein. Some binding calls cover weakened binding; strength is not graded here.

Regarding “HA-tagged DTX3L D1-D3 domains (A2-A516) (from UniProt Q8TDB6 2-516) (domain or fragment)”, the binding entry is listed as “binds”.
